Consider 27 targets from the supplement of paper PMC12819154, “High-throughput peptide-centric local stability assay extends protein–ligand identification to membrane proteins, tissues and bacteria” (Nature Structural & Molecular Biology, 2025).

Chains of the proteins cited; added tags and fusions are not shown. Lines headed by an entry give the natural chain unless they say otherwise; changes in a name come on top.
UniProt Q96H55, whole entry: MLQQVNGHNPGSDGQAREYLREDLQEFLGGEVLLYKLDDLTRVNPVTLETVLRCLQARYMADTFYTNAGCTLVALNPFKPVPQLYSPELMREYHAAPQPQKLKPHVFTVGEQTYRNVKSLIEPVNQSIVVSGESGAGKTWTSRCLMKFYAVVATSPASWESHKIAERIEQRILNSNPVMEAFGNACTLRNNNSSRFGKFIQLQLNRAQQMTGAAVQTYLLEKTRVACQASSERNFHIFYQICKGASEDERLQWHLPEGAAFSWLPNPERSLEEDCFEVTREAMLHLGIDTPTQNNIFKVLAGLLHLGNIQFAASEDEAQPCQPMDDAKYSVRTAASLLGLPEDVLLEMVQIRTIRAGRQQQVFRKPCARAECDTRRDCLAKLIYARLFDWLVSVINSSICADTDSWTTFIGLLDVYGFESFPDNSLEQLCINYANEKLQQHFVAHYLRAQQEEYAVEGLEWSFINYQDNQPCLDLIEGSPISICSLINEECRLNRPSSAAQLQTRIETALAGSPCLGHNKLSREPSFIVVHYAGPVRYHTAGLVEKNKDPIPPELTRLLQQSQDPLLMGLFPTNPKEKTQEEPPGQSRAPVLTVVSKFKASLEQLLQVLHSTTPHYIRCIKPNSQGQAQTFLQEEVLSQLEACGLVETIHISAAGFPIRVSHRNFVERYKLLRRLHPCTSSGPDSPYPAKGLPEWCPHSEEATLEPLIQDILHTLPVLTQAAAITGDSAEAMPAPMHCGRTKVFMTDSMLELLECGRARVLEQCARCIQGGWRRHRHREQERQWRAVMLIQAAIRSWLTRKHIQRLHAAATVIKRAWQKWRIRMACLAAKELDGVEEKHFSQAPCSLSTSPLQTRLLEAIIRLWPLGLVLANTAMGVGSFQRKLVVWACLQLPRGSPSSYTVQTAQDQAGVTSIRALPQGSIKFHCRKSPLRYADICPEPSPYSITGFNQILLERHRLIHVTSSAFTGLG
UniProt Q96G23: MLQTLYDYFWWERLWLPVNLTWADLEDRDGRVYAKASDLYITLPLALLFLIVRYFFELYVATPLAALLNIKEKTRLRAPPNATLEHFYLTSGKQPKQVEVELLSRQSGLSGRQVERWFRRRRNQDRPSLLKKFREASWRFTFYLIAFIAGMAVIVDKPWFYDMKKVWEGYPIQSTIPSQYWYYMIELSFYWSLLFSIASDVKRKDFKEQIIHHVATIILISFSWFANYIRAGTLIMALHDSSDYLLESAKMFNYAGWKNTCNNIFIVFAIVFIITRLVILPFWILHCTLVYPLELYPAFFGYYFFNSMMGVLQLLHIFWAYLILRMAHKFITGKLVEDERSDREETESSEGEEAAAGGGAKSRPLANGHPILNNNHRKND
UniProt Q96MN5: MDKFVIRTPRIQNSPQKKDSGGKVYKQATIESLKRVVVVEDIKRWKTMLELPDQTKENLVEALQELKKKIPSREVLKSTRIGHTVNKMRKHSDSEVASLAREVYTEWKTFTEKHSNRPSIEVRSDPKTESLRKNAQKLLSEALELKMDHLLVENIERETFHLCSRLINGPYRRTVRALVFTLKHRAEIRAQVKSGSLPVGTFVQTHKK
UniProt Q96PU5: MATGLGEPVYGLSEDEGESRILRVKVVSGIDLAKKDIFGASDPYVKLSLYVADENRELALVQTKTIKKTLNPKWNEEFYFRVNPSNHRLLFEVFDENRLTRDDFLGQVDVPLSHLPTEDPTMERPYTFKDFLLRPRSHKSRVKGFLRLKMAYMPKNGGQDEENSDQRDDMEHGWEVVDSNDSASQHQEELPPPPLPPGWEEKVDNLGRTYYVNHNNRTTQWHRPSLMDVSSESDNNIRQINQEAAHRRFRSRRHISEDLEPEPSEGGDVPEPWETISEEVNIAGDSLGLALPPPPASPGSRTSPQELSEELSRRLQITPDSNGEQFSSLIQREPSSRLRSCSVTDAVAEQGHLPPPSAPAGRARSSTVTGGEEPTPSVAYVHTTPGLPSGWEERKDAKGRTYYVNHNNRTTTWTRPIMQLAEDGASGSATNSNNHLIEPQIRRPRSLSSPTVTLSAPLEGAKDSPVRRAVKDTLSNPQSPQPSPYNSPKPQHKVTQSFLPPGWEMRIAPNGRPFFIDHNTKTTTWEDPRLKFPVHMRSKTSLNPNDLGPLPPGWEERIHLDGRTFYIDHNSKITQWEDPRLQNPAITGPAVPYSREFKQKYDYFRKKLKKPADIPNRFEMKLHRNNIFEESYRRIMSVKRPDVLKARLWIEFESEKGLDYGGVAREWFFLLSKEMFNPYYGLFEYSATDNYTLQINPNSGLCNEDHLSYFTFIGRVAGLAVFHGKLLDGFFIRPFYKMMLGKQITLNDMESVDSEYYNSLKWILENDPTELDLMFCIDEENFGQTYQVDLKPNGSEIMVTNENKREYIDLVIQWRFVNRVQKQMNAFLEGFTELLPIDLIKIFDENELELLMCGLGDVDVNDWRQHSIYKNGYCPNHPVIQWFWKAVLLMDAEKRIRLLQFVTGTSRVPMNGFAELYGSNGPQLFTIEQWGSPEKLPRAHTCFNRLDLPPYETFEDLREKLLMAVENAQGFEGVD
UniProt Q96PG8: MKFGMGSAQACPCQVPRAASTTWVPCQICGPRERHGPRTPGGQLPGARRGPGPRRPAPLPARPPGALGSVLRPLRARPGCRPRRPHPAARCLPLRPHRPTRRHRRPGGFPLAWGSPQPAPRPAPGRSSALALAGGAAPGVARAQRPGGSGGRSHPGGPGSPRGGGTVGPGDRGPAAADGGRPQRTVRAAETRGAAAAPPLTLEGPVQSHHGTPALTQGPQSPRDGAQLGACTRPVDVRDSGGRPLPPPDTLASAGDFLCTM
UniProt Q96IU4: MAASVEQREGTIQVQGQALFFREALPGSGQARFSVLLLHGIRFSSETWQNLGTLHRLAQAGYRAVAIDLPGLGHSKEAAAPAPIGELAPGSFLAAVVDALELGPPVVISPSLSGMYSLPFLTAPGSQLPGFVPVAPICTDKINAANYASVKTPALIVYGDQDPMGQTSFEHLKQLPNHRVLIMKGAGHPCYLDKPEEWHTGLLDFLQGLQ
UniProt Q96I25: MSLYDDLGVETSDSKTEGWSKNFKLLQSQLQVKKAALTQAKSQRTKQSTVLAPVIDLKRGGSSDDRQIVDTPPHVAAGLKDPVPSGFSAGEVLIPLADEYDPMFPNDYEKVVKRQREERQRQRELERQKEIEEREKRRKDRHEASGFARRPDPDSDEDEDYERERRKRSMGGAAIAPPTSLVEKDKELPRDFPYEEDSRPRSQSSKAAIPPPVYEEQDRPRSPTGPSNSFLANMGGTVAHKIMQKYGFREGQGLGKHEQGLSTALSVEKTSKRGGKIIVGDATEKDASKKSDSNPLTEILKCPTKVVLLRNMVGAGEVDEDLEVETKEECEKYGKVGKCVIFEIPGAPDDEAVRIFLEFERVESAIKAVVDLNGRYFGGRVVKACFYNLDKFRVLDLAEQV
UniProt Q96HT8: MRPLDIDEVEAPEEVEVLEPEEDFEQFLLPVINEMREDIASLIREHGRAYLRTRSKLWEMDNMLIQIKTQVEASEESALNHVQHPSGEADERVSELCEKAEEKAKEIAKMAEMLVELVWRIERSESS
UniProt Q96GX9: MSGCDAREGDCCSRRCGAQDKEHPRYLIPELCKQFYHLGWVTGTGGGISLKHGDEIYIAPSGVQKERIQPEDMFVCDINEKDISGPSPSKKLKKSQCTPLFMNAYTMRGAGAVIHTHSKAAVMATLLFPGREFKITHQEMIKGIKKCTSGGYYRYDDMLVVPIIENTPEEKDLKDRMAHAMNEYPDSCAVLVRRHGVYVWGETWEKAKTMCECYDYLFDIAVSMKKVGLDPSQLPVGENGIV
UniProt Q96GD4, whole entry: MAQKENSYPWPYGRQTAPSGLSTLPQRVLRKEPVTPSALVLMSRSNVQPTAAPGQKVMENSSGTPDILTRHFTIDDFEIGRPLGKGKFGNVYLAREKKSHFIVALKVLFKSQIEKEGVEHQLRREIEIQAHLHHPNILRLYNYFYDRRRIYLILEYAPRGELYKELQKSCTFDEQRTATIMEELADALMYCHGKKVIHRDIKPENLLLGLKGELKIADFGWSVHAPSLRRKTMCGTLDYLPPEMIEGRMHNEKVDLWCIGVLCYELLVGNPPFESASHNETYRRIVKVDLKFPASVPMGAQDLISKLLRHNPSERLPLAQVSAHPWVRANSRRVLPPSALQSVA
UniProt Q96QD5: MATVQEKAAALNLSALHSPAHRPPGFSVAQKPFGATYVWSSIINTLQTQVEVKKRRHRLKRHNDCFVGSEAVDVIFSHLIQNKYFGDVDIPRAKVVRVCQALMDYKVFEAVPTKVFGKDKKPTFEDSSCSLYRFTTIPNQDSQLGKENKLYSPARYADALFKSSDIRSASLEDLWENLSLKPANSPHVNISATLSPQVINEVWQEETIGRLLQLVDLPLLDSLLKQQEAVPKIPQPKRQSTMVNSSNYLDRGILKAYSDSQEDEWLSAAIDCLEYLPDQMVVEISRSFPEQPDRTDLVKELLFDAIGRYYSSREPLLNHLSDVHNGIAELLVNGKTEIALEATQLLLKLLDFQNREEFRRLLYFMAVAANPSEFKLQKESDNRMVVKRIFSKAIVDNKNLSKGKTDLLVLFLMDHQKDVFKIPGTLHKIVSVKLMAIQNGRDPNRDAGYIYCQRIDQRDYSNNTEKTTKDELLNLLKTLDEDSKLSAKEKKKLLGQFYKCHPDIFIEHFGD
UniProt Q96FS4: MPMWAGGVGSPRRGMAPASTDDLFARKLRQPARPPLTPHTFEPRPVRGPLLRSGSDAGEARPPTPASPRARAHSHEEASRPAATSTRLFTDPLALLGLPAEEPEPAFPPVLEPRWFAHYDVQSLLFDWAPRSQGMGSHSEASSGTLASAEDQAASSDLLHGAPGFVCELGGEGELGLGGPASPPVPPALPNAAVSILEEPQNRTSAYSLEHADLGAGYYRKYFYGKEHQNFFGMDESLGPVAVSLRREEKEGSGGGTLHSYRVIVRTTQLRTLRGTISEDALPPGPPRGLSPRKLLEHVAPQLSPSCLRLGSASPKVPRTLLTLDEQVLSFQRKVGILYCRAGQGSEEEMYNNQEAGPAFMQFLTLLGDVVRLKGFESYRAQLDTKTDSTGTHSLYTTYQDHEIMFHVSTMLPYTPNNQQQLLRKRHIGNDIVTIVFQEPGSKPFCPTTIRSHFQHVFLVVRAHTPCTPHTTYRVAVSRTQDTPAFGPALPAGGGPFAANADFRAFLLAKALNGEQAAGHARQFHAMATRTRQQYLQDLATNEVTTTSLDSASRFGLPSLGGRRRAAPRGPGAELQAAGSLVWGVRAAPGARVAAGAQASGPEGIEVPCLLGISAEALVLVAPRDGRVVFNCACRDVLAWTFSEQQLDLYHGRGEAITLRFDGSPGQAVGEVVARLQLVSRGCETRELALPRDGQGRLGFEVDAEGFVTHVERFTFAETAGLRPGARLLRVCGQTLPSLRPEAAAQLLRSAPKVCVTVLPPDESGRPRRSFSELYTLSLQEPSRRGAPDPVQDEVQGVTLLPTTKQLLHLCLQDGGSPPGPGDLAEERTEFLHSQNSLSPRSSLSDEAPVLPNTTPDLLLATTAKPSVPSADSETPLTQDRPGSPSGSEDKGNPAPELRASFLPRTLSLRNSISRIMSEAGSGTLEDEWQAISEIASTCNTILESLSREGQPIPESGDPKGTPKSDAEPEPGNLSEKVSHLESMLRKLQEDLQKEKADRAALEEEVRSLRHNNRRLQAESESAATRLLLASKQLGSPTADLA
UniProt Q96MH2: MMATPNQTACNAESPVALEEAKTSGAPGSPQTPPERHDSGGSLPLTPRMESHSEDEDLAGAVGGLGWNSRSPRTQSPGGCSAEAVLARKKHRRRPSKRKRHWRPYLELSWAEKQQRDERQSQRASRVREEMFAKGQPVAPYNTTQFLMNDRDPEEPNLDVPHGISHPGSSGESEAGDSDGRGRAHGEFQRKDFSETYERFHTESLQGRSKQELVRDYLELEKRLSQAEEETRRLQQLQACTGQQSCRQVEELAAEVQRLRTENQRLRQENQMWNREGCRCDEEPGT
UniProt Q96LW9: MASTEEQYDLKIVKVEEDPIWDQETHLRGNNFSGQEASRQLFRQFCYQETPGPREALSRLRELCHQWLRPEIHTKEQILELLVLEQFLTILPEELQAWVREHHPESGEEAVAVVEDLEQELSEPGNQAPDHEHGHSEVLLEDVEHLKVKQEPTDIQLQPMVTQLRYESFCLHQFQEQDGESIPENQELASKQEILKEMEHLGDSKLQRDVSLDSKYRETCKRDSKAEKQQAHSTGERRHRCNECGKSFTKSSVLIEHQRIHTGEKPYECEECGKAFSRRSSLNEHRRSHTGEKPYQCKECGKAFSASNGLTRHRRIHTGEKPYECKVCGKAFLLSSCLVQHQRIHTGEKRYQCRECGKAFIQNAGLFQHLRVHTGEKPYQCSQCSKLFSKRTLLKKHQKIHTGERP
UniProt Q96HR9: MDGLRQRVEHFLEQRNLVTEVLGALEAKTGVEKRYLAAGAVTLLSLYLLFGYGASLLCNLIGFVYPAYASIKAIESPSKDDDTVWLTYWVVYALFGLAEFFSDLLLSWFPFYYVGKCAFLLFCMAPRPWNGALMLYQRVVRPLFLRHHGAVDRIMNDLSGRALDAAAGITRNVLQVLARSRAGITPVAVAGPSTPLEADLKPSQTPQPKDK

Some of the results follow. Small differences around the control level are noise.

Compound in the assay: Cc1nc(Nc2ncc(C(=O)Nc3c(C)cccc3Cl)s2)cc(N2CCN(CCO)CC2)n1 [dasatinib]
The assay can be described thus: log2 fold change of tryptic peptide abundance, ligand vs vehicle (limited proteolysis) (log2 ratio); higher = more trypsin-susceptible (destabilized). The note with it: ligand concentration: 5 uM; sample: K562 cleared lysate.
Take “LIN37 (peptide sequence: LDEEAGKTPSDTHNKDCSIAATGK, peptide start residue: 40) (UniProt Q96GY3)”: the log2 fold change stood at 0.282.
Consider “MYO19 (peptide sequence: YHTAGLVEK, peptide start residue: 538) (UniProt Q96H55)”, for which the log2 fold change is -0.932.
In the case of “MUS81 (peptide sequence: RLDDLCSSIIDGR, peptide start residue: 336) (UniProt Q96NY9)”, the log2 fold change was -0.328.
For the target “RMND5B (peptide sequence: CWYHSVFACPILR, peptide start residue: 330) (UniProt Q96G75)”, the log2 fold change worked out at 0.242.
“UniProt Q96G23 (peptide sequence: SRPLANGHPILNNNHR, peptide start residue: 362)”: the log2 fold change was -0.0347.
As for “MBOAT7 (peptide sequence: KEMASGFSK, peptide start residue: 128) (UniProt Q96N66)”, the figure is 0.294; as for “MCCC1 (peptide sequence: IIEEAPAPGIK, peptide start residue: 285) (UniProt Q96RQ3)”, 0.394; as for “TCEANC2 (peptide sequence: ETFHLCSR, peptide start residue: 158) (UniProt Q96MN5)”, -0.43.
With “NEDD4L (peptide sequence: NNIFEESYR, peptide start residue: 625) (UniProt Q96PU5)”, the log2 fold change stood at 0.326.
Turning to “ANKRD27 (peptide sequence: NADQAVPLHLACQQGHFQVVK, peptide start residue: 774) (UniProt Q96NW4)”, the log2 fold change came to 0.197.
As for “UniProt Q96PG8 (peptide sequence: SHPGGPGSPR, peptide start residue: 153)”, the figure is -0.167; as for “ABHD14B (peptide sequence: FSVLLLHGIR, peptide start residue: 33) (UniProt Q96IU4)”, 1; as for “RBM17 (peptide sequence: IFLEFER, peptide start residue: 355) (UniProt Q96I25)”, -0.259.
Turning to “UniProt Q96HT8 (peptide sequence: TQVEASEESALNHVQHPSGEADER, peptide start residue: 69)”, the log2 fold change is 0.037.
As for “ZFYVE19 (peptide sequence: LLAEAALELR, peptide start residue: 308) (UniProt Q96K21)”, the figure is 0.137; as for “FBXL18 (peptide sequence: VNLSGCHLTSLR, peptide start residue: 124) (UniProt Q96ME1)”, 0.126.
Consider “EXOC2 (peptide sequence: LEICALR, peptide start residue: 856) (UniProt Q96KP1)”, for which the log2 fold change is -0.263.
As for “APIP (peptide sequence: QFYHLGWVTGTGGGISLK, peptide start residue: 34) (UniProt Q96GX9)”, the log2 fold change was found to be 0.281.
With “UniProt Q96GD4 (peptide sequence: GKFGNVYLAR, peptide start residue: 142)”, the log2 fold change is -0.269.
For “FAM111A (peptide sequence: KAESPEYVHMYTQR, peptide start residue: 505) (UniProt Q96PZ2)”, the log2 fold change stood at 0.568.
For the target “DEPDC7 (peptide sequence: DAGYIYCQR, peptide start residue: 446) (UniProt Q96QD5)”, the log2 fold change was found to be 0.202.
As for “SIPA1 (peptide sequence: AHSHEEASRPAATSTR, peptide start residue: 72) (UniProt Q96FS4)”, the log2 fold change was -0.0975.
With “IFT74 (peptide sequence: QNIEYEALK, peptide start residue: 522) (UniProt Q96LB3)” the figure was -0.597; with “HEXIM2 (peptide sequence: DFSETYER, peptide start residue: 266) (UniProt Q96MH2)”, 0.101.
“UniProt Q96LW9 (peptide sequence: GNNFSGQEASR, peptide start residue: 29)”: the log2 fold change was -0.412.
As for “UniProt Q96I51 (peptide sequence: VLQVSCGR, peptide start residue: 176)”, the figure is 0.087; as for “REEP6 (peptide sequence: QRVEHFLEQR, peptide start residue: 6) (UniProt Q96HR9)”, 0.0589.
